“And” between values parts separate entries of the source, which are not always exact repeats. Equal entries are not always repeated. In all, about 340,000 compounds went through this assay and about 6,200 (1.8%) were called active. The shares of active, inactive and inconclusive entries below differ from those in the screen. The call rests on the fitted dose curve; in most records, active means well fitted activation curve with a large enough effect; inconclusive means small, poorly fitted or top-dose-only effect; inactive means no such curve, though single readings can be large or run the other way. A potency beside an inconclusive call is a rough fit, not a confirmed value.
Assay: A quantitative high throughput screen for small molecules that induce DNA re-replication in SW480 colon adenocarcinoma cells. Further: nearly all actives have a fitted effect of over 55% in size. On re-replication activation: % of control where 0% means no effect.
Details: Hoechst DNA content imaging, 48 h; re-replication activation: at 46.1 µM (top of the series) unless noted
Outline: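 SW480 cells exposed to compounds for 48 hr at 37 C, 5% CO2, then Hoechst-stained 40 min. Nuclear DNA content imaged by fluorescence scanning (405 nm excitation, 500-530 nm emission); re-replication scored as increased high-intensity nuclei.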
Potency means the concentration at half of the fitted maximal effect.

SMILES | Potency | re-replication activation
CC(=O)N1CCc2c(sc(NC(=O)CCS(=O)(=O)c3ccc(C)cc3)c2C(N)=O)C1 | inconclusive: 2.31 µM [activator, partial curve, poor fit] | –
COc1ccc(OC)c(NC(=O)CN2CCN(C(=O)c3ccco3)CC2)c1 | inconclusive: 0.651 µM [activator, full curve, poor fit] | –
CC1CCC2(CC1)NC(=O)N(CC(=O)Nc1ccc(F)cc1)C2=O (centres undefined) | inconclusive: 16.4 µM [activator, partial curve, poor fit] | –
CCCCCN1C(=O)Cn2c(nc3ccccc3c2=O)C1C (centres undefined) | – | inactive: 3.9%
Cc1nnc(NC(=O)C2c3ccccc3Oc3ccccc32)s1 | inconclusive: 25.9 µM [activator, partial curve, poor fit] | –
Oc1ccc(CN2CCN(Cc3ccccc3)CC2)c2cccnc12 | inconclusive: 14.6 µM [activator, partial curve] | –
COc1ccc(CNC(=O)C(c2ccco2)N(C(=O)CNS(=O)(=O)c2ccccc2)c2ccccc2C)cc1 (centres undefined) | inconclusive: 20.6 µM [activator, single point] and inconclusive: 14.6 µM [activator, partial curve, poor fit] | –
CC(C)=CCC/C(C)=C/CC/C(C)=C/CC/C=C(\C)CC/C=C(\C)CCC=C(C)C | – | inactive: -0.581%
COc1ccc(OC)c(NC(=O)c2cc3c(=O)n4ccccc4nc3n2C)c1 | inconclusive: 29.1 µM [activator, single point] | –
CC(=O)Nc1ccc(S(=O)(=O)Nc2ccc(F)c([N+](=O)[O-])c2)cc1 | – | inactive: -3.56%
COc1ccc(-c2cc(C(=O)N/N=C(\C)c3cccnc3)c3ccccc3n2)c(OC)c1 | inconclusive: 29.1 µM [activator, single point] | –
Cc1cc(NC(=O)CSc2nnc(Nc3ccccc3C)s2)no1 | inconclusive: 10.3 µM [activator, partial curve] | –
CC(c1ccccc1)N1CC(C(=O)Nc2ccc(F)cc2)CC1=O (centres undefined) | inconclusive: 0.517 µM [activator, full curve, poor fit] | –
N#Cc1ccc(C(=O)CSc2n[nH]c(=O)n2-c2cccnc2)cc1 | inconclusive: 18.4 µM [activator, single point] | –
Cc1cc(/C=N\NC(=O)CC(=O)NC2CCCCC2)c(C)n1-c1ccc(Cl)c(Cl)c1 | – | inactive: 26.8%
NC(=O)c1cc([N+](=O)[O-])c(Cl)cc1NCc1ccccn1 | inconclusive: 2.06 µM [activator, full curve, poor fit] | –
COc1ccc2c(CCNC(=O)/C=C/c3ccc(OC)c(OC)c3)c[nH]c2c1 | inconclusive: 29.1 µM [activator, single point] | –
CN(C)C(=O)c1ccc(NC(=O)CSc2nnc(-c3cccs3)n2N)cc1 | – | inactive: -15.7%
CCN1CCN(C(c2cccs2)C(C)NC(=S)NC2CCCCC2)CC1 (centres undefined) | inconclusive: 16.4 µM [activator, single point] | –
Cc1cccc(NC(=O)c2nc[nH]c2C(=O)NC2CCN(C(=O)OC(C)(C)C)CC2)c1 | – | inactive: -22.2%
CC(C)(C)c1ccc(C(=O)Nc2nnc(C3=COCCO3)o2)cc1 | – | inactive: 12.6%
COc1cccc(NC(=O)C(C)Sc2nnc(C3CC3)n2C2CC2)c1 (centres undefined) | – | inactive: -44.6%

SMILES | Potency | re-replication activation
CC1(C)S/C(=N/N=C/c2ccco2)NC1=O | – | inactive: 3.65%
O=C(Cc1ccccc1)N/N=C/c1ccc([N+](=O)[O-])s1 | inconclusive: 4.61 µM [activator, partial curve, poor fit] | –
O=C(Nc1cccnc1Cl)c1ccc(Cl)c([N+](=O)[O-])c1 | active: 23.1 µM | –
CCCc1cc(=O)[nH]c(SCC(=O)N2CCOCC2)n1 | inconclusive: 16.4 µM [activator, single point] | –
O=C(Nc1ccc(Cl)cc1)NN1CCCCCC1 | – | inactive: 1.76%
COc1ccc(CNCC(O)(c2ccc(Cl)cc2)c2ccc(Cl)cc2)cc1OC | inconclusive: 9.2 µM [activator, single point] | –
O=C(NNc1nc(-c2ccccc2)cs1)c1ccco1 | active: 18.4 µM | –
O=C(O)C(Cc1c[nH]c2ccccc12)N1C(=O)C2C3c4ccccc4C(c4ccccc43)[C@@H]2C1=O (some centres undefined) | – | inactive: 4.98%
CCOC(=O)C(Cc1ccnc2ccccc12)=NO | inconclusive: 29.1 µM [activator, single point] | –
Cc1ccc(CCNC(=O)CN2C(=O)COc3ccc(S(=O)(=O)N4CCCCC4)cc32)cc1 | inconclusive: 4.11 µM [activator, full curve] | –
Cn1nc(C(F)(F)F)c(C(=O)Nc2ccc(F)cc2F)c1Sc1cccc(Cl)c1 | inconclusive: 16.4 µM [activator, single point] | –
CC(C)Cc1nc2oc3c(NCCCN4CCOCC4)ncnc3c2c2c1CCC2 | inconclusive: 35.5 µM [activator, single point] | –
N#CCC(=O)Nc1ccc(C(=O)OC(C(=O)Nc2cc(C(F)(F)F)ccc2Cl)c2ccccc2)cc1 (centres undefined) | inconclusive: 16.4 µM [activator, single point] | –
O=C(CSc1cccc[n+]1[O-])c1cc2ccccc2o1 | active: 13 µM | –
CCOC(=O)c1ccc2nc(NC(C)=O)sc2c1 | – | inactive: -13%
CCOC(=O)c1c(-c2ccc(F)cc2)csc1NC(=O)CN1C(=O)NC2(CCCCC2C)C1=O (centres undefined) | inconclusive: 18.4 µM [activator, partial curve, poor fit] | –
O=S(=O)(c1ccc(Cl)c(NC(=S)N/N=C/c2ccc(O)cc2)c1)N1CCOCC1 | active: 18.4 µM | –
COc1ccc(NC(=O)c2cc(S(=O)(=O)N3CCCCC3)c[nH]2)cc1Cl | – | inactive: -11.3%
O=C(Cn1cc([N+](=O)[O-])cn1)NCc1ccccc1Cl | inconclusive: 0.461 µM [activator, partial curve, poor fit] | –
CCOC(=O)C1C(=O)C=C(c2ccc(Br)cc2)CC1c1ccco1 (centres undefined) | inconclusive: 29.1 µM [activator, single point] | –
Cn1c(C(=O)N2CCCC(C(=O)NCCCSC3CCCCC3)C2)cc2sccc21 (centres undefined) | – | inactive: 0.293%
COc1ccc(C(=O)COC(=O)c2ccc3c(c2)OCO3)c(OC)c1 | – | inactive: -6.58%

Entries above that contain a cyano group, in the order listed:
SMILES | Potency | re-replication activation
N#Cc1ccc(C(=O)CSc2n[nH]c(=O)n2-c2cccnc2)cc1 | inconclusive: 18.4 µM [activator, single point] | –
N#CCC(=O)Nc1ccc(C(=O)OC(C(=O)Nc2cc(C(F)(F)F)ccc2Cl)c2ccccc2)cc1 (centres undefined) | inconclusive: 16.4 µM [activator, single point] | –

— PubChem BioAssay AID624297 (National Center for Advancing Translational Sciences (NCATS), 2012)
